Taken from: PubChem BioAssay AID602196 (INSERM, 2012)
In all, the deposit lists about 23,000 reagents; shown is an unselected part. 455 of all reagents (2%) were called active. 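Active includes both protection and sensitisation; some change values fall well beyond the stated -50 to +50 range.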 Reagents against one gene are numbered here. No sequences are given here. Not given: the amount of reagent.

- Aim: 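Genes whose knock-down alters cisplatin killing of lung cancer cells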
- Cell system: human A549 lung cancer cells
- Reagent: siRNA pair against human genes
- Duration: 48 h transfection before cisplatin; time from cisplatin to read-out not stated
- Treatment: cisplatin at a dose killing half of control-siRNA cells; exact dose and duration not given
- Measurement: 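Cisplatin cell death as a shift from the 50% death seen with control siRNA; siRNAs toxic or growth-blocking alone scored 0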
- Scale: two-siRNA summed score (-2 to +2): higher = both siRNAs protect from cisplatin killing; -2 means both sensitise; mean protection from cisplatin (shift in death) and protection from cisplatin (shift in death), siRNA C and protection from cisplatin (shift in death), siRNA D: higher = protection from cisplatin killing
- Rule for the call: 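siRNAs harmful alone (LDH or WST-1) get 0; others get +1 for less and -1 for more cisplatin killing; genes are active when the two siRNAs give the same sign, summing to ±2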
- Calls: active = both siRNAs shift cisplatin killing the same way; inactive = no consistent shift, or siRNA harmful alone

| target gene | reagent | two-siRNA summed score (-2 to +2) | mean protection from cisplatin (shift in death) (%) | protection from cisplatin (shift in death), siRNA C (%) | protection from cisplatin (shift in death), siRNA D (%) | call |
| --- | --- | --- | --- | --- | --- | --- |
| WDR82 (GeneID 80335) | 1 | 0 | -6 | -4.8 | -7.1 | inactive |
| TRIM67 (GeneID 440730) | 1 | 0 | 3.9 | 0.8 | 7.1 | inactive |
| CD8B (GeneID 926) | 1 | 0 | 0.8 | -18.5 | 20 | inactive |
| LINC02764 (GeneID 387810) | 1 | 1 | 10.8 | 14.7 | 6.9 | inactive |
| ARHGAP6 (GeneID 395) | 1 | 0 | 3.2 | 10.6 | -4.3 | inactive |
| CD84 (GeneID 8832) | 1 | 0 | 8.2 | 14.9 | 1.5 | inactive |
| UGT1A8 (GeneID 54576) | 1 | 0 | 5 | 6.6 | 3.4 | inactive |
| TBC1D7 (GeneID 51256) | 1 | 0 | 2.5 | 2.2 | 2.8 | inactive |
| PPP1R14D (GeneID 54866) | 1 | -1 | 7.1 | -11.5 | 25.7 | inactive |
| GPR68 (GeneID 8111) | 1 | 0 | 4 | 0.5 | 7.6 | inactive |
| QNG1 (GeneID 84267) | 1 | 0 | 12.6 | 10.8 | 14.4 | inactive |
| GPR87 (GeneID 53836) | 1 | 0 | 1.2 | -14.4 | 16.8 | inactive |
| LOC400790 | 1 | 0 | 4 | 6.6 | 1.4 | inactive |
| LOC441227 | 1 | 1 | 17.7 | 13.5 | 21.9 | inactive |
| AKR1C2 (GeneID 1646) | 1 | 0 | -1.7 | -8.1 | 4.7 | inactive |
| MANEAL (GeneID 149175) | 1 | 0 | -1.5 | 1 | -3.9 | inactive |
| RNASE7 (GeneID 84659) | 1 | 0 | -6.5 | -5.3 | -7.7 | inactive |
| CORO1B (GeneID 57175) | 1 | 0 | -0.2 | -8.8 | 8.5 | inactive |
| CORO1B (GeneID 57175) | 2 | 0 | 1 | -10.1 | 12.1 | inactive |
| RHOC (GeneID 389) | 1 | 2 | 15.3 | 10.6 | 20 | active |
| TEFM (GeneID 79736) | 1 | 0 | 3.8 | 6.8 | 0.8 | inactive |
| LOC388282 (GeneID 388282) | 1 | 0 | 4 | -15.4 | 23.4 | inactive |
| LRRC74B (GeneID 400891) | 1 | 0 | 3.3 | -0.2 | 6.8 | inactive |
| LOC440506 | 1 | 1 | 11.5 | 6.7 | 16.2 | inactive |
| ABCC10 (GeneID 89845) | 1 | 0 | -2.4 | -8.1 | 3.4 | inactive |
| SERPI-13 | 1 | 1 | 6.7 | 11.2 | 2.2 | inactive |
| LOC441137 | 1 | 2 | 15.8 | 19.5 | 12.1 | active |
| LOC440722 | 1 | 1 | 14.8 | 14.7 | 14.9 | inactive |
| NPDC1 (GeneID 56654) | 1 | 0 | 0.9 | -1.6 | 3.4 | inactive |

Active calls, among the entries above:
| target gene | reagent | two-siRNA summed score (-2 to +2) | mean protection from cisplatin (shift in death) (%) | protection from cisplatin (shift in death), siRNA C (%) | protection from cisplatin (shift in death), siRNA D (%) | call |
| --- | --- | --- | --- | --- | --- | --- |
| RHOC (GeneID 389) | 1 | 2 | 15.3 | 10.6 | 20 | active |
| LOC441137 | 1 | 2 | 15.8 | 19.5 | 12.1 | active |

The list goes on:
| target gene | reagent | two-siRNA summed score (-2 to +2) | mean protection from cisplatin (shift in death) (%) | protection from cisplatin (shift in death), siRNA C (%) | protection from cisplatin (shift in death), siRNA D (%) | call |
| --- | --- | --- | --- | --- | --- | --- |
| CACNA2D4 (GeneID 93589) | 1 | -1 | -10.7 | -34.2 | 12.8 | inactive |
| ZMYND19 (GeneID 116225) | 1 | 0 | 8.2 | 20.2 | -3.9 | inactive |
| BSCL2 (GeneID 26580) | 1 | 0 | -5.8 | -16.3 | 4.7 | inactive |
| NOSIP (GeneID 51070) | 1 | 0 | -9.1 | -12.7 | -5.6 | inactive |
| LOC390760 (retired record) (GeneID 390760) | 1 | 0 | 11.1 | 14 | 8.2 | inactive |
| MYO9B (GeneID 4650) | 1 | 0 | 9.9 | 17.5 | 2.2 | inactive |
| LDHC (GeneID 3948) | 1 | 0 | -1.8 | -5.5 | 1.8 | inactive |
| ELK3 (GeneID 2004) | 1 | 1 | 2.7 | 14.2 | -8.8 | inactive |
| OTX1 (GeneID 5013) | 1 | 1 | 7.4 | -2.8 | 17.6 | inactive |
| SLC27A6 (GeneID 28965) | 1 | 0 | 15.8 | 11.2 | 20.4 | inactive |
| SLC27A6 (GeneID 28965) | 2 | 1 | 28.8 | 23 | 34.7 | inactive |
| FRG1 (GeneID 2483) | 1 | 1 | 9.7 | 1.8 | 17.5 | inactive |
| ATG10 (GeneID 83734) | 1 | 0 | -6.7 | 4.7 | -18.2 | inactive |
| TARP (GeneID 445347) | 1 | 2 | 17.1 | 20.7 | 13.4 | active |
| SRD5A1 (GeneID 6715) | 1 | -1 | -11.6 | -16.6 | -6.6 | inactive |
| SRD5A1 (GeneID 6715) | 2 | -1 | -10.7 | -16.3 | -5.2 | inactive |
| SLC4A5 (GeneID 57835) | 1 | 0 | 12.4 | 15.6 | 9.2 | inactive |
| HNRNPA1P60 (GeneID 120364) | 1 | 0 | 6 | 24.2 | -12.2 | inactive |
| TMEM200A (GeneID 114801) | 1 | 0 | -4 | -7.2 | -0.7 | inactive |
| LOC389174 | 1 | 0 | 21.2 | 10.8 | 31.5 | inactive |
| GSC (GeneID 145258) | 1 | 1 | 7 | 22.2 | -8.2 | inactive |
| F2RL1 (GeneID 2150) | 1 | 0 | -9.4 | -12.2 | -6.6 | inactive |
| SP110 (GeneID 3431) | 1 | 0 | 6.8 | 12.8 | 0.8 | inactive |
| LOC441812 | 1 | 0 | 1.5 | 9.1 | -6.1 | inactive |
| ZBTB16 (GeneID 7704) | 1 | -1 | -9.5 | -1.9 | -17.1 | inactive |
| CHAC1 (GeneID 79094) | 1 | 0 | 9.5 | 12.1 | 6.8 | inactive |
| MED27 (GeneID 9442) | 1 | -1 | 4.7 | 37.1 | -27.7 | inactive |
| MOCS1 (GeneID 4337) | 1 | 0 | 7.6 | 0.4 | 14.8 | inactive |
